From paper PMC10269722, “LexR Positively Regulates the LexABC Efflux Pump Involved in Self-Resistance to the Antimicrobial Di-N-Oxide Phenazine in Lysobacter antibioticus”
The exact form of at least one protein or probe is not confirmed. A negative result means that nothing was seen under these conditions. At least one verdict was read from the data and is not stated in words by the source. Protein sequences can lack the tags named with them.

Target: T1, LexR (Lysobacter antibioticus OH13) (UniProt A0A0S2F3V0)
T1 sequence (looked up, limits assumed): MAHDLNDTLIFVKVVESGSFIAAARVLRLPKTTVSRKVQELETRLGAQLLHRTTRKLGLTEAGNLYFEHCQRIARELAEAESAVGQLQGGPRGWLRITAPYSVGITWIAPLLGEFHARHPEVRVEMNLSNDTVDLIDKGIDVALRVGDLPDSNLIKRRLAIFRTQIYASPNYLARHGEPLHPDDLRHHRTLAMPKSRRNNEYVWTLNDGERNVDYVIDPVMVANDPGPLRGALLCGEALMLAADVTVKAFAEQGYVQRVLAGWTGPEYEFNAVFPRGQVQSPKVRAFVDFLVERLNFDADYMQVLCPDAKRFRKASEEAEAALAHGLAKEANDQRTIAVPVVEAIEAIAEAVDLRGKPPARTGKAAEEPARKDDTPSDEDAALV
Assay: EMSA
Conditions: EMSA (LightShift kit): 1x binding buffer, 50 ng/uL poly(dI-dC), 2.5% glycerol, 0.05% NP-40, 5 fmol labeled probe in 20 uL, 30 min; recombinant protein; protein details: His6 (pET-28a, BamHI/EcoRI); label: 5' biotin

“GGCTCCGCGCCTGCCAGCTTCTTTTTTCGTTGTCTGGGGGCTAGGGCGAGACACCCGC (double strand) [probe 3 (58 bp)]”: no binding.
